# Reference: PMC12586438
# These are yes or no findings as the source states them, for the method shown. Binding seen in cells or lysates may run through a third protein. These calls come from enrichment with a bait or labelling near it, and not all partners need be listed.
# B1: CRTC2, hit of the IP-MS (protein, UniProt Q53ET0 1-693)
# chain: MATSGANGPGSATASASNPRKFSEKIALQKQRQAEETAAFEEVMMDIGSTRLQAQKLRLAYTRSSHYGGSLPNVNQIGSGLAEFQSPLHSPLDSSRSTRHHGLVERVQRDPRRMVSPLRRYTRHIDSSPYSPAYLSPPPESSWRRTMAWGNFPAEKGQLFRLPSALNRTSSDSALHTSVMNPSPQDTYPGPTPPSILPSRRGGILDGEMDPKVPAIEENLLDDKHLLKPWDAKKLSSSSSRPRSCEVPGINIFPSPDQPANVPVLPPAMNTGGSLPDLTNLHFPPPLPTPLDPEETAYPSLSGGNSTSNLTHTMTHLGISRGMGLGPGYDAPGLHSPLSHPSLQSSLSNPNLQASLSSPQPQLQGSHSHPSLPASSLARHVLPTTSLGHPSLSAPALSSSSSSSSTSSPVLGAPSYPASTPGASPHHRRVPLSPLSLLAGPADARRSQQQLPKQFSPTMSPTLSSITQGVPLDTSKLSTDQRLPPYPYSSPSLVLPTQPHTPKSLQQPGLPSQSCSVQSSGGQPPGRQSHYGTPYPPGPSGHGQQSYHRPMSDFNLGNLEQFSMESPSASLVLDPPGFSEGPGFLGGEGPMGGPQDPHTFNHQNLTHCSRHGSGPNIILTGDSSPGFSKEIAAALAGVPGFEVSAAGLELGLGLEDELRMEPLGLEGLNMLSDPCALLPDPAVEESFRSDRLQ
# Biological target: T1, FAIM2, bait of the IP-MS (UniProt Q9BWQ8)
# T1 sequence: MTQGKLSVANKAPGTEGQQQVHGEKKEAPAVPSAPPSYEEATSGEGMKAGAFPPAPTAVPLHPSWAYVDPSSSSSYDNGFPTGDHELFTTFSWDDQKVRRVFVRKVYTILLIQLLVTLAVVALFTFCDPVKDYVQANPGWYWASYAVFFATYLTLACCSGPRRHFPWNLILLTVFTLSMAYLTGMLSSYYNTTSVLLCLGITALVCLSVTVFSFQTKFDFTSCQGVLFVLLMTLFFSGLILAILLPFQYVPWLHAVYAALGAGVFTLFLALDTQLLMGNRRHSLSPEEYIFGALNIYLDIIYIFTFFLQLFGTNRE
# Assay: affinity purification with mass spectrometry; immunoprecipitation of FAIM2 and mass spectrometry (IP-MS); cells not given
binder,measurement,value
B1,binding,binds
